Measurements published in paper PMC11696497.
No constants are given. Whether binding was seen depends on the method and setting. Binding seen in cells or lysates may run through a third protein. These calls come from enrichment with a bait or labelling near it, and not all partners need be listed. Sequences can lack the tags named with a protein.

The chains behind the UniProt entries cited, without tags or fusion partners.
UniProt P56450: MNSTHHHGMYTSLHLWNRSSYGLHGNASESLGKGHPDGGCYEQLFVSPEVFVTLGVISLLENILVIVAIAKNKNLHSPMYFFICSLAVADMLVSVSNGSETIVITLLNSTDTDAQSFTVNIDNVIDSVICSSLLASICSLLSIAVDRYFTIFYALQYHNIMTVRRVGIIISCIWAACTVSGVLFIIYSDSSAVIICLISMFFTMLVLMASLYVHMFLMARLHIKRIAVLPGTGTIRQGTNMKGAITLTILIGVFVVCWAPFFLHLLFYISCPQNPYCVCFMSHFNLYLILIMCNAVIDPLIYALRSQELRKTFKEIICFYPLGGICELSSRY

Target: T1, NUCB2-Flag (nucleobindin-2, Flag-tagged, from plasmid pc-NUCB2-Flag) (UniProt P80303)
T1 sequence: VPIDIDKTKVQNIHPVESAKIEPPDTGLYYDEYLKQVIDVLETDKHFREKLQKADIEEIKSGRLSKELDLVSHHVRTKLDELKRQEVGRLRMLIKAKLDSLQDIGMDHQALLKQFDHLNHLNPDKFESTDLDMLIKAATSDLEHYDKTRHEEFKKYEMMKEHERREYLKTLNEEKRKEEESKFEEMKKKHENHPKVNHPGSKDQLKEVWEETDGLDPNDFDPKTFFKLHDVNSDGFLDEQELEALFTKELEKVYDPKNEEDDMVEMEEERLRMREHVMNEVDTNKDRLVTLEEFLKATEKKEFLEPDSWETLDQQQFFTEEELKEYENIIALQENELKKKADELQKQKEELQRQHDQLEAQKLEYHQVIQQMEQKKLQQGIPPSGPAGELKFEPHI
Assay: affinity purification with mass spectrometry; STC-1 cells transfected with pc-NUCB2-Flag or empty vector for 48 h; lysate precipitated with anti-Flag antibody; SDS-PAGE bands analysed by LC-MS

endogenous MC4R of STC-1 cells (from UniProt P56450 1-332) (receptor)
binding: binds
